According to patent US9073973B2, “Dye conjugates of template-fixed peptidomimetics” (Polyphor LTD., priority 2005, dated 2015):
At least one compound was matched to its structure with a doubt left. Bridge positions count the residues as written; N and C are the ends. Square brackets hold non-standard residues; d marks the D form. Peptide text beside a SMILES is read from it. * marks the point of attachment. FITC = O=C1OC2(c3ccc(O)cc3Oc3cc(O)ccc32)c2ccc(NC(=S)*)cc21

Chains of the proteins cited; added tags and fusions are not shown.
UniProt P61073, whole entry: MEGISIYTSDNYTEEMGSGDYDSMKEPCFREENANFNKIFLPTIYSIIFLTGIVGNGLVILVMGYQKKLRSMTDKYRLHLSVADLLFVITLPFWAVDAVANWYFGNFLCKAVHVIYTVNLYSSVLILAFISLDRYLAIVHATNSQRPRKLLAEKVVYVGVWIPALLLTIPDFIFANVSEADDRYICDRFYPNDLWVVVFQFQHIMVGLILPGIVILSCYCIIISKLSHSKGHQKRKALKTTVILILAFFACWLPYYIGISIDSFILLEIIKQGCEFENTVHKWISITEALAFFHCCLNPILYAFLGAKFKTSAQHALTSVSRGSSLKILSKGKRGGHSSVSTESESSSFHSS

Biological target: T1, human CXCR4 (Homo sapiens, UniProt P61073)
T1 construct: expressed in transfected cells; host or cells: mouse pre-B cell line 300-19
Assay: Ca2+ assay: CXCR4-antagonizing activity (SDF-1 induced calcium mobilization)
Assay type: cell-based
Conditions: mouse pre-B cell line 300-19 stably transfected with human CXCR4; 10 nM SDF-1

SMILES: C[C@@H]1NC(=O)[C@H](CO)NC(=O)[C@@H]2CSSC[C@H](NC(=O)[C@H](Cc3ccc(O)cc3)NC(=O)[C@H](CCCNC(=N)N)NC(=O)[C@H](Cc3ccccc3)NC(=O)[C@H]3CCCN3C1=O)C(=O)N[C@@H](Cc1ccc(O)cc1)C(=O)N[C@@H](CCC(N)=O)C(=O)N[C@@H](CCCCNC(=S)Nc1ccc3c(c1)C(=O)OC31c3ccc(O)cc3Oc3cc(O)ccc31)C(=O)N1CCC[C@@H]1C(=O)N1CCC[C@H]1C(=O)N[C@@H](Cc1ccc(O)cc1)C(=O)N[C@@H](Cc1c[nH]cn1)C(=O)N[C@@H](Cc1ccc(O)cc1)C(=O)N2 [Example 18] (cyclo(YHYCSA[dP]FRYCYQK(FITC)[dP]P); disulfide 4-11)
- IC50: > 500 nM
